The values below come from patent CN112851815A.

Sequences of proteins named here, by UniProt entry; tags and fusion partners are left off.
UniProt Q02223: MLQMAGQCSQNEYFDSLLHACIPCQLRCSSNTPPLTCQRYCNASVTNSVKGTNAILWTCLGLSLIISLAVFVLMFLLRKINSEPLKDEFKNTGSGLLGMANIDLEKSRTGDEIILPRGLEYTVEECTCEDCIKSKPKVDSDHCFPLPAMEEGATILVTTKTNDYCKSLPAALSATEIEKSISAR

The test deals with BCMA on K562-BCMA cells (稳定表达BCMA的阳性细胞K562-BCMA) (UniProt Q02223). The experiment in a line: immunofluorescence microscopy on fixed K562-BCMA cells, PE anti-His detection.

No constants are given. Whether binding was seen depends on the method and setting. Some entries that bind do so weakly or less than the wild type.

B1: 抗BCMA单链抗体B36 (anti-BCMA fully human scFv B36) (scFv, not shown: small tags and cut ends)
scFv: QVQLVQSGAEVKKPGSSVKVSCKASGGTFSSYAISWVRQAPGQGLEWMGRIIPILGIANYAQKFQGRVTITADESTSTAYMELSSLRSDDTAVYYCARAGYDRSGYYFQHWGQGTLVTVSSGGGGSGGGGSGGGGSVLTQPPSVSGTPGQRVTISCSGSSSNIGSNIVNWYQQVPGTAPKLLIYSNNQRPSGVPGRFSGSKSGTSASLAIRGLQSDDEADYYCAAWDGGPRGHYVFGTGTKVSVL
B1: the binding entry is recorded as “binds”.
